The record followed here is paper PMC6985235.

The chains behind the UniProt entries cited, without tags or fusion partners.
UniProt A2DLL4: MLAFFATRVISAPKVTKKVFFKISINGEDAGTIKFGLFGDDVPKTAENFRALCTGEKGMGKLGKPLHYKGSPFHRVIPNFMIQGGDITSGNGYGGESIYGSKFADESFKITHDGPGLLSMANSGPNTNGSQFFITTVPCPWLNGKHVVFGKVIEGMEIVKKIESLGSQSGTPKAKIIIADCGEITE

No constants are given. Whether binding was seen depends on the method and setting. For some of these results: Binding seen in cells or lysates may run through a third protein. Some entries that bind do so weakly or less than the wild type.

In assay [1] the target is GST-TvCyP1 (Trichomonas vaginalis) (UniProt A2DT06). Kind of assay: pull-down; GST pull-down: 30 picomoles of GST or GST-fusion protein on 20 μl glutathione beads with 35 nM His-tagged protein in 1 ml TEN200 (1 mM EDTA, 200 mM NaCl, 20 mM Tris-HCl pH 7.4), 4 °C overnight; washes with 0.1% TritonX-100; anti-6xHis Western blot; in Fig. 3D also with DMSO or 5 μM cyclosporine A (binding greatly diminished); both purified.

Assay [2] has as its target GST-TvCyP1(R63A) (Trichomonas vaginalis) (UniProt A2DT06). The description is as above.
Assay [3] addresses HA-TvCyP1 (Trichomonas vaginalis) (UniProt A2DT06). Kind of assay: co-IP; total lysates of T. vaginalis overexpressing the HA-tagged protein (1% TritonX-100 in PBS), agarose-conjugated anti-HA antibody, 4 °C overnight; Western blot. For orientation: A western blot detects proteins with antibodies after separation by electrophoresis.
Assay [4] deals with HA-TvCyP2 (Trichomonas vaginalis) (UniProt A2DLL4). Described as above.

Take “His-TvCyP2 (from UniProt A2DLL4 1-186) (enzyme)”: the binding entry in assay [1] and in assay [2] was “binds” in each case. Regarding “TvCyP2 (endogenous) (from UniProt A2DLL4 1-186) (enzyme)”, in assay [3], the binding entry was “binds”.

For the substance “TvCyP1 (endogenous) (from UniProt A2DT06 1-173) (enzyme)”, the binding result in assay [4] is “binds”.
